In the supplement of paper PMC12067093, “Discovery and optimisation of a covalent ligand for TRIM25 and its application to targeted protein ubiquitination” (Chemical Science, 2025):
This is one part of the list.

By UniProt entry, the sequences of proteins in these tests, tags left out. Where a name states a change or a piece, a line headed by the entry shows the natural chain unless it says otherwise.
UniProt O75592: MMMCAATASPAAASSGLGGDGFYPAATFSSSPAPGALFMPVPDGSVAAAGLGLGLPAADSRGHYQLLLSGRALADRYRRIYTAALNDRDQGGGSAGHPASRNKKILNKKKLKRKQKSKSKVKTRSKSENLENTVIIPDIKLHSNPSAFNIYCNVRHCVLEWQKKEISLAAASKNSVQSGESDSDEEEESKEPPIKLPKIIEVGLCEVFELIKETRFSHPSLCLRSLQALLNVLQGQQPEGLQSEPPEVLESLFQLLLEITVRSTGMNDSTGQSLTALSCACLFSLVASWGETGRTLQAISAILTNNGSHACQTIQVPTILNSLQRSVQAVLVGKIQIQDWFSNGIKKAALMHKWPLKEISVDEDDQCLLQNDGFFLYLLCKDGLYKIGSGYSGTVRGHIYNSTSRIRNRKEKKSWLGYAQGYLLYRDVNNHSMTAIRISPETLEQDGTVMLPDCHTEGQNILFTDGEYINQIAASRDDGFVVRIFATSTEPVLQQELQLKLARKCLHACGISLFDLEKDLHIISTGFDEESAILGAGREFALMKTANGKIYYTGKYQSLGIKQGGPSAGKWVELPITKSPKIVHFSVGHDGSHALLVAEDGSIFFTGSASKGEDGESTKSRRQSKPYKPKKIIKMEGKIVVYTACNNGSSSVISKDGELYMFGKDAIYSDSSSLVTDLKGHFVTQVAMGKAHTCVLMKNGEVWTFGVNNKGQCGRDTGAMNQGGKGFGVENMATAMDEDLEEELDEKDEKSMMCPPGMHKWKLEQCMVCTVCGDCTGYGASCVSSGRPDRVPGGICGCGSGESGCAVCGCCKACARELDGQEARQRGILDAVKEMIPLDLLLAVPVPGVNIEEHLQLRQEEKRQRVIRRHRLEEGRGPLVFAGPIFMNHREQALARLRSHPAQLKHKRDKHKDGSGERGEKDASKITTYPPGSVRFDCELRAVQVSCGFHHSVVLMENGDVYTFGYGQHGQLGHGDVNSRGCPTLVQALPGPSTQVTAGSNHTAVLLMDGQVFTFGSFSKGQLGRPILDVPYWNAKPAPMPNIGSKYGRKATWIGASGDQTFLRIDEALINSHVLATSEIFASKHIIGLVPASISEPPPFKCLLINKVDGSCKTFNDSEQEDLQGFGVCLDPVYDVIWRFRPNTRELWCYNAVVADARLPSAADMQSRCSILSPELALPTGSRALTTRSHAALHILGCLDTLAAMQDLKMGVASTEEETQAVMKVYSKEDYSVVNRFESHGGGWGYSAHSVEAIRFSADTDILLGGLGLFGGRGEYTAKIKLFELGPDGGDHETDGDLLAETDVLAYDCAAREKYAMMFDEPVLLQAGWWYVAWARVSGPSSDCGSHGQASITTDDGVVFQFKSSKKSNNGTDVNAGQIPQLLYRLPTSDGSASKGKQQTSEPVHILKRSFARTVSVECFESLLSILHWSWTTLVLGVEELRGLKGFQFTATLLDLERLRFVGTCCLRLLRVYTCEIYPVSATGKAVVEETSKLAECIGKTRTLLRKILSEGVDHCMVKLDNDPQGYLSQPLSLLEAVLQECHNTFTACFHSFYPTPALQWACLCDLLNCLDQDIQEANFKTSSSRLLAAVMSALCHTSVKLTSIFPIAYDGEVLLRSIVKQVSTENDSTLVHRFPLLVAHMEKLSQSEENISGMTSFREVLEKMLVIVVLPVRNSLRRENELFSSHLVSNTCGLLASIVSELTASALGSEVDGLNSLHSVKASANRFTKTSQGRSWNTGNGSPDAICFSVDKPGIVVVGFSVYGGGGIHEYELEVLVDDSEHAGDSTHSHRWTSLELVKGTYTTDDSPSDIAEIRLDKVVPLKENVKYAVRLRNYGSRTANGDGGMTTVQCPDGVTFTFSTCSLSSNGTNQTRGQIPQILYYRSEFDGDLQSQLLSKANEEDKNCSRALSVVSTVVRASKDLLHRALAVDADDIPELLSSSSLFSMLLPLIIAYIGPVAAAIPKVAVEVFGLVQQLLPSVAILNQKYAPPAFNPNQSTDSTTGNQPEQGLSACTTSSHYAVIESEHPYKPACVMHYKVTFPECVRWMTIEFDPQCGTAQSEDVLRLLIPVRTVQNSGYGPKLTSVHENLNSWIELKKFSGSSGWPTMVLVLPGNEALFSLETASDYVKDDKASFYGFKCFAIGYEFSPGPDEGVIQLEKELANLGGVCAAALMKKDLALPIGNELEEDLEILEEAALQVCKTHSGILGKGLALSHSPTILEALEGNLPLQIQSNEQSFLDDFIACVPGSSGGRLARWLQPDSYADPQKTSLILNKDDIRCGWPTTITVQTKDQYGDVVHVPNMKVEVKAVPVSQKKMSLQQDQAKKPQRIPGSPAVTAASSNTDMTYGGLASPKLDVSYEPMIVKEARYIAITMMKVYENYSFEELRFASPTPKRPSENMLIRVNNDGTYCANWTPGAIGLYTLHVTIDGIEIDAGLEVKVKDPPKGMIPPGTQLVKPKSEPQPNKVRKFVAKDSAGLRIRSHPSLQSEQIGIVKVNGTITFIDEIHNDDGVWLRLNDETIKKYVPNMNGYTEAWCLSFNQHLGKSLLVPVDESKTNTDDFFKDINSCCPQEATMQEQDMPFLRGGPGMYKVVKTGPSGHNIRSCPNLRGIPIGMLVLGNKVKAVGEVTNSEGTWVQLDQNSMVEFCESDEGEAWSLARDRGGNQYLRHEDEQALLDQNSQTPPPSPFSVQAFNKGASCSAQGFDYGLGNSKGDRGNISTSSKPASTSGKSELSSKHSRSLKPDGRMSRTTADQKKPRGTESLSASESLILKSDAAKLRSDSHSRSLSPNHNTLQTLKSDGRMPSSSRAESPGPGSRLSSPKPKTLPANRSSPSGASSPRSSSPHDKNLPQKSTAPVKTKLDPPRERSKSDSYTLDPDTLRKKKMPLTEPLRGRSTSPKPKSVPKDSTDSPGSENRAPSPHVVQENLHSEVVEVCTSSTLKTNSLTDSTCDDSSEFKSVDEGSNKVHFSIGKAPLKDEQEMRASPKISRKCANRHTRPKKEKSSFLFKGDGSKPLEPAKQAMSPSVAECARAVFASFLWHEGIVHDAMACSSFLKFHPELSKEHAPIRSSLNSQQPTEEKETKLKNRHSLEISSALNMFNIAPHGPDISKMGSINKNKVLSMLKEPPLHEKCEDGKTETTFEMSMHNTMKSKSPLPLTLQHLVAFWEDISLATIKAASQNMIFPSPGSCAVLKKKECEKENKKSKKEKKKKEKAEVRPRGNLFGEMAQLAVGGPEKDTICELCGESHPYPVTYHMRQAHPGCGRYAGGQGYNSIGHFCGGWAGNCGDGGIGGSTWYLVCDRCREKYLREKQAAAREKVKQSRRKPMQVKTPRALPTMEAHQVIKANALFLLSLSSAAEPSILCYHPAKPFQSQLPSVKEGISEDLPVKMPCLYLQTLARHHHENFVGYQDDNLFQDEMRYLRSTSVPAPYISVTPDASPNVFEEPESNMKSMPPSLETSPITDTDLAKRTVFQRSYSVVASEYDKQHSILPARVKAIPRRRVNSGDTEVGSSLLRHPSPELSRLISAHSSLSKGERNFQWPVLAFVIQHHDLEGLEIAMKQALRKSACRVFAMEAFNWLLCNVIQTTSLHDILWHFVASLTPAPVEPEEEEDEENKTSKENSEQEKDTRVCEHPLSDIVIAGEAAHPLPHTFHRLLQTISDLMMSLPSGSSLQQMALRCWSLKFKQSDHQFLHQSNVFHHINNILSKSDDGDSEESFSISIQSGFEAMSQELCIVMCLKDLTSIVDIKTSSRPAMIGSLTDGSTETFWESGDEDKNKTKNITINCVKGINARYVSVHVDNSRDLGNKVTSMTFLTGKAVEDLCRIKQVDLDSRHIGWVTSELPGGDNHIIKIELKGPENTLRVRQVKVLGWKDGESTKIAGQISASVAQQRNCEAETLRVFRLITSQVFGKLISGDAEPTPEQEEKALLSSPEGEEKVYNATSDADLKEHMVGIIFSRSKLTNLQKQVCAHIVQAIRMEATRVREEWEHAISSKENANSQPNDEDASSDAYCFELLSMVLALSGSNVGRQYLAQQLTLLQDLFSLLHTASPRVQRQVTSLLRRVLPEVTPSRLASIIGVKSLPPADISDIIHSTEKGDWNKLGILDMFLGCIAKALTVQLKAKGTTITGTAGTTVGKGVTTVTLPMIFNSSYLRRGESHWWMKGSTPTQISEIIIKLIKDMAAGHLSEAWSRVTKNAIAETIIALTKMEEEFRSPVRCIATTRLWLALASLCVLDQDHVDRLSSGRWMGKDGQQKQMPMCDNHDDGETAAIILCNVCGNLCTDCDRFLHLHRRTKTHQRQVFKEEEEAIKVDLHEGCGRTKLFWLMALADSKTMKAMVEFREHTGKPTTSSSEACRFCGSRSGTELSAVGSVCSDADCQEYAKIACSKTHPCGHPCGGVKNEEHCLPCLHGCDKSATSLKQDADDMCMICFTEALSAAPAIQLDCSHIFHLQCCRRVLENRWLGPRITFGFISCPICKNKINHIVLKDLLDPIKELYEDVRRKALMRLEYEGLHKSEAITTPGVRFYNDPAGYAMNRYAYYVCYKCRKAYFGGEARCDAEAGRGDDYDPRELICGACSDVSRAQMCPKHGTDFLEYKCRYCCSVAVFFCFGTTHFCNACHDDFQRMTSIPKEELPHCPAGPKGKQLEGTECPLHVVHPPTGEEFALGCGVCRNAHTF
UniProt P52701: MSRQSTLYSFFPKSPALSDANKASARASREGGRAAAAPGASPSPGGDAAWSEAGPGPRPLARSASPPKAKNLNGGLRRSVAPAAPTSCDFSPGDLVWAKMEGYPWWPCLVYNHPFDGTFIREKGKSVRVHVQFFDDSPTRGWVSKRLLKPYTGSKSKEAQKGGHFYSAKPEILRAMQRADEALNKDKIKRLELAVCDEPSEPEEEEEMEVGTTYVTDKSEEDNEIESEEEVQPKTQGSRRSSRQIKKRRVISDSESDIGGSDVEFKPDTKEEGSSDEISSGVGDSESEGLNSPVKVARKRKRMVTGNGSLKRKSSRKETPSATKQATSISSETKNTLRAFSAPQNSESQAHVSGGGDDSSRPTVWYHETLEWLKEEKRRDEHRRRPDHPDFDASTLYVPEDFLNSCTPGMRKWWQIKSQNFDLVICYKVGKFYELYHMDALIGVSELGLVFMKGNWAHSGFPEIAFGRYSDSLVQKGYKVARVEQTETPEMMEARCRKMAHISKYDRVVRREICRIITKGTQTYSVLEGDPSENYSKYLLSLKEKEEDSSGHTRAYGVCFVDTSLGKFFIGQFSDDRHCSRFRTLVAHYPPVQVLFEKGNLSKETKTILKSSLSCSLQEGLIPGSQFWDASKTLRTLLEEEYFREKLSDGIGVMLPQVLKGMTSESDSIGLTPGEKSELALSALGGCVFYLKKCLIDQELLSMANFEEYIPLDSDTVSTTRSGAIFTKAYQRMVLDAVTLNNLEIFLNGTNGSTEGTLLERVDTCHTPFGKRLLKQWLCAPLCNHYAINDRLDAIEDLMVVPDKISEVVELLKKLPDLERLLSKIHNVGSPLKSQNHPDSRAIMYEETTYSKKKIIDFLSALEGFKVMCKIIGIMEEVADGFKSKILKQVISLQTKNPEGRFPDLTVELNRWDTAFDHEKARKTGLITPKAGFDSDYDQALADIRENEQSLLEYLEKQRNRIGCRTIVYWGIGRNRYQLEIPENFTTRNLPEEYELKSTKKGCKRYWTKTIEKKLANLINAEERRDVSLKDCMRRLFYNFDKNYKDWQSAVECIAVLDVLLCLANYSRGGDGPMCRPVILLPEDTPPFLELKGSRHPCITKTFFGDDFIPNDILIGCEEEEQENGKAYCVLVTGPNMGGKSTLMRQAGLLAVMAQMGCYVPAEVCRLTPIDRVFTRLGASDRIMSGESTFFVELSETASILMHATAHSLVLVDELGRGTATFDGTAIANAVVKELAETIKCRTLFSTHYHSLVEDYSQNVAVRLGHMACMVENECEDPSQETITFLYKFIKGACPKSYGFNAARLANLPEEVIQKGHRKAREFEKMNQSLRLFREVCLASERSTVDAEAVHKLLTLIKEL
UniProt Q2M296: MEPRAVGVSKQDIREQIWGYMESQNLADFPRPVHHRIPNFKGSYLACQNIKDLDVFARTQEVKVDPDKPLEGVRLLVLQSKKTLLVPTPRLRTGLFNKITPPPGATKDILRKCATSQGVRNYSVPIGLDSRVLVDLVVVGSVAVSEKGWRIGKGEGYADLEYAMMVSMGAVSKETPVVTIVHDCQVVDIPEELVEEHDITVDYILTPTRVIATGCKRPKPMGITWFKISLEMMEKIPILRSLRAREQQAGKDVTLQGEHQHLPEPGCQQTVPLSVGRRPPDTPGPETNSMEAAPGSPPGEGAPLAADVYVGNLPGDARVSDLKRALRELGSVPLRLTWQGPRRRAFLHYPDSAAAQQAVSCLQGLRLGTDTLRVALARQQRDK

Compound: CC1Cc2ccccc2N1C(=O)C1CCCN(C1)C(=O)CCl (mixture of isomers) [TRIM25 ligand 11 (diastereomer mixture)]
Experiment: probe-labelled cysteine peptide fold change vs DMSO (competition) (log2 fold change); higher = less target engagement (more negative = stronger competition)
Details: THP-1, incubation time: 4 h
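Further: competitive chemoproteomic profiling in live THP-1 cells with an iodoacetamide desthiobiotin (IA-DTB) probe, comparing probe-labelled peptide intensities in compound-treated cells against DMSO-treated controls.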

Target | probe-labelled cysteine peptide fold change (10 µM) | probe-labelled cysteine peptide fold change (50 µM)
MYCBP2_O75592_645_IVVYTACNNGSSSVISK (UniProt O75592) | -0.0457 | 0.123
MRPL46_Q9H2W6_210_FLGNAPCGHYTFK (UniProt Q9H2W6) | -0.0524 | -0.0694
MSH6_P52701_615_SSLSCSLQEGLIPGSQFWDASK (UniProt P52701) | -0.13 | -0.2
MTHFSD_Q2M296_215_VIATGCK (UniProt Q2M296) | 0.0177 | 0.0734
MTRR_Q9UBK8_64_AIAEEICEQAVVHGFSADLHCISESDKYDLK (UniProt Q9UBK8) | -0.0166 | -0.0337
MYCBP2_O75592_4318_VDLHEGCGR (UniProt O75592) | 0.246 | 0.0775
MTHFSD_Q2M296_267_DVTLQGEHQHLPEPGCQQTVPLSVGR (UniProt Q2M296) | -0.204 | -0.261
MYCBP2_O75592_4578_ELICGACSDVSR (UniProt O75592) | -0.102 | -0.109
